Source: PubChem BioAssay AID686938 (Drosophila RNAi Screening Center, 2013)
In all, the deposit lists about 23,000 reagents; this is an unselected part of those that have a named target and a result. Of all reagents, 75 (0.33%) were called active. 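Raw plate signals without normalisation; calls rest on plate z-scores that were not deposited; ratio present for only 364 wells.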 The numbers tell different reagents against one gene apart. Reagent sequences are not shown. Not stated in the record: the dose of the treatment.

Aim: 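Fly genes required for calcium entry once internal stores are emptied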 (primary screen)
Cells: Drosophila S2R+ cells
Reagents: long dsRNA against Drosophila genes, about 0.25 µg dsRNA per well, roughly 10,000 cells
Timing: 5 days of knock-down before the calcium assay
Conditions: thapsigargin (SERCA pump blocker) to empty calcium stores; entry signal taken 4 min after adding it
Detection: 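Per-well fluo-4 fluorescence in two replicates, unnormalised, measured in resting cells and 4 min after store depletion by the SERCA blocker thapsigargin; ratio of the two present in few wells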
Direction: calcium entry signal: higher = stronger calcium signal after store depletion; resting calcium signal: higher = higher resting calcium signal
Hit rule: 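Called when the plate z-score of the entry-to-rest ratio, mean of duplicates, falls below −3; wells with low overall dye signal (Fmax z below −2) or more than five off-targets excluded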
Calls: active = strongly reduced calcium entry; inactive = no strong reduction

Depletion of NdufV3 (GeneID 32076) resulted in: calcium entry signal, replicate 1 (fluorescence units) = 4.03e7; calcium entry signal, replicate 2 (fluorescence units) = 3.94e7; resting calcium signal, replicate 1 (fluorescence units) = 1.94e7; resting calcium signal, replicate 2 (fluorescence units) = 1.67e7; inactive.
Rab3-GEF (GeneID 32442) #1 showed calcium entry signal, replicate 1 (fluorescence units) = 3.96e7; calcium entry signal, replicate 2 (fluorescence units) = 2.40e7; resting calcium signal, replicate 1 (fluorescence units) = 2.09e7; resting calcium signal, replicate 2 (fluorescence units) = 1.18e7; inactive.
Rab3-GEF (GeneID 32442) #2 gave calcium entry signal, replicate 1 (fluorescence units) = 4.03e7; calcium entry signal, replicate 2 (fluorescence units) = 3.08e7; resting calcium signal, replicate 1 (fluorescence units) = 2.03e7; resting calcium signal, replicate 2 (fluorescence units) = 1.43e7; inactive.
For Rab3-GEF (GeneID 32442) #3, the entry reads calcium entry signal, replicate 1 (fluorescence units) = 4.65e7; calcium entry signal, replicate 2 (fluorescence units) = 2.92e7; resting calcium signal, replicate 1 (fluorescence units) = 2.41e7; resting calcium signal, replicate 2 (fluorescence units) = 1.56e7; inactive.
CG9967 (GeneID 33414) gave calcium entry signal, replicate 1 (fluorescence units) = 3.51e7; calcium entry signal, replicate 2 (fluorescence units) = 8.77e7; resting calcium signal, replicate 1 (fluorescence units) = 1.91e7; resting calcium signal, replicate 2 (fluorescence units) = 3.52e7; inactive.
With knock-down of CG18327 (GeneID 36567) the results were calcium entry signal, replicate 1 (fluorescence units) = 3.86e7; calcium entry signal, replicate 2 (fluorescence units) = 4.06e7; resting calcium signal, replicate 1 (fluorescence units) = 1.92e7; resting calcium signal, replicate 2 (fluorescence units) = 1.80e7; inactive.
CG7094 (GeneID 35065) scored calcium entry signal, replicate 1 (fluorescence units) = 5.04e7; calcium entry signal, replicate 2 (fluorescence units) = 3.88e7; resting calcium signal, replicate 1 (fluorescence units) = 2.17e7; resting calcium signal, replicate 2 (fluorescence units) = 1.75e7; inactive.
Against hrm (GeneID 35499), the values are calcium entry signal, replicate 1 (fluorescence units) = 4.49e7; calcium entry signal, replicate 2 (fluorescence units) = 5.18e7; resting calcium signal, replicate 1 (fluorescence units) = 2.22e7; resting calcium signal, replicate 2 (fluorescence units) = 2.20e7; inactive.
Silencing of CG12107 (GeneID 35712) gave: calcium entry signal, replicate 1 (fluorescence units) = 2.69e7; calcium entry signal, replicate 2 (fluorescence units) = 2.27e7; resting calcium signal, replicate 1 (fluorescence units) = 1.10e7; resting calcium signal, replicate 2 (fluorescence units) = 1.13e7; inactive.
Silencing of Mvd (GeneID 32520) gave: calcium entry signal, replicate 1 (fluorescence units) = 3.88e7; calcium entry signal, replicate 2 (fluorescence units) = 3.57e7; resting calcium signal, replicate 1 (fluorescence units) = 1.75e7; resting calcium signal, replicate 2 (fluorescence units) = 1.80e7; inactive.
Against CG14069 (GeneID 34510) the deposit lists calcium entry signal, replicate 1 (fluorescence units) = 2.96e7; calcium entry signal, replicate 2 (fluorescence units) = 3.43e7; resting calcium signal, replicate 1 (fluorescence units) = 1.38e7; resting calcium signal, replicate 2 (fluorescence units) = 1.57e7; inactive.
After knock-down of CG42594 (GeneID 8674091) #1, the record shows calcium entry signal, replicate 1 (fluorescence units) = 2.30e7; calcium entry signal, replicate 2 (fluorescence units) = 3.90e7; resting calcium signal, replicate 1 (fluorescence units) = 1.55e7; resting calcium signal, replicate 2 (fluorescence units) = 2.18e7; inactive.
CG42594 (GeneID 8674091) #2 gave calcium entry signal, replicate 1 (fluorescence units) = 3.50e7; calcium entry signal, replicate 2 (fluorescence units) = 4.07e7; resting calcium signal, replicate 1 (fluorescence units) = 1.81e7; resting calcium signal, replicate 2 (fluorescence units) = 1.97e7; inactive.
For CG42594 (GeneID 8674091) #3, the entry reads calcium entry signal, replicate 1 (fluorescence units) = 3.38e7; calcium entry signal, replicate 2 (fluorescence units) = 3.52e7; resting calcium signal, replicate 1 (fluorescence units) = 1.53e7; resting calcium signal, replicate 2 (fluorescence units) = 1.37e7; inactive.

A few values from the entries so far.
For “calcium entry signal, replicate 1 (fluorescence units)”, CG9967 (GeneID 33414) shows 3.51e7
CG42594 (GeneID 8674091) #2, Call = inactive
